Measurements: article doi:10.1101/2023.08.11.552907
These are yes or no findings as the source states them, for the method shown. Binding seen in cells or lysates may run through a third protein. Some entries that bind do so weakly or less than the wild type.

Sequences of proteins named here, by UniProt entry; tags and fusion partners are left off. A change or cut given only in a name is not applied to a line headed by its entry. A line that says so, or that is headed by a name, gives the form on record, which may keep a tag or linker.
UniProt P83917: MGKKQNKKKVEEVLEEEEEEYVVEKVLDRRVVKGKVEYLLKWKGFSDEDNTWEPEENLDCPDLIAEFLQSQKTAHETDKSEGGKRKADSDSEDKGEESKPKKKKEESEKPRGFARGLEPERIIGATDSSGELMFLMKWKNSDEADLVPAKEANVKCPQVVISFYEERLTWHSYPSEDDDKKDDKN
HP1β 89/91A with C-terminal GFP (P83917, form named): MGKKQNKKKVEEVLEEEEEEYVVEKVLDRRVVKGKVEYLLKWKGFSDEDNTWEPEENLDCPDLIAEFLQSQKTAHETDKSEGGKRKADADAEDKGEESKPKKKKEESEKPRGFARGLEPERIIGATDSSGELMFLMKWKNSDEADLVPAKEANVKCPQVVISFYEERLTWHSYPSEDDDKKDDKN
UniProt Q61686: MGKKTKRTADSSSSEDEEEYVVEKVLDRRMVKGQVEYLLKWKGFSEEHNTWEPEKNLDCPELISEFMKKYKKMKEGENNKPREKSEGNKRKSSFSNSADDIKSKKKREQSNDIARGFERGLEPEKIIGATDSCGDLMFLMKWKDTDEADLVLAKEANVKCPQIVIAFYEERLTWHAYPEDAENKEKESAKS
UniProt Q69ZA1: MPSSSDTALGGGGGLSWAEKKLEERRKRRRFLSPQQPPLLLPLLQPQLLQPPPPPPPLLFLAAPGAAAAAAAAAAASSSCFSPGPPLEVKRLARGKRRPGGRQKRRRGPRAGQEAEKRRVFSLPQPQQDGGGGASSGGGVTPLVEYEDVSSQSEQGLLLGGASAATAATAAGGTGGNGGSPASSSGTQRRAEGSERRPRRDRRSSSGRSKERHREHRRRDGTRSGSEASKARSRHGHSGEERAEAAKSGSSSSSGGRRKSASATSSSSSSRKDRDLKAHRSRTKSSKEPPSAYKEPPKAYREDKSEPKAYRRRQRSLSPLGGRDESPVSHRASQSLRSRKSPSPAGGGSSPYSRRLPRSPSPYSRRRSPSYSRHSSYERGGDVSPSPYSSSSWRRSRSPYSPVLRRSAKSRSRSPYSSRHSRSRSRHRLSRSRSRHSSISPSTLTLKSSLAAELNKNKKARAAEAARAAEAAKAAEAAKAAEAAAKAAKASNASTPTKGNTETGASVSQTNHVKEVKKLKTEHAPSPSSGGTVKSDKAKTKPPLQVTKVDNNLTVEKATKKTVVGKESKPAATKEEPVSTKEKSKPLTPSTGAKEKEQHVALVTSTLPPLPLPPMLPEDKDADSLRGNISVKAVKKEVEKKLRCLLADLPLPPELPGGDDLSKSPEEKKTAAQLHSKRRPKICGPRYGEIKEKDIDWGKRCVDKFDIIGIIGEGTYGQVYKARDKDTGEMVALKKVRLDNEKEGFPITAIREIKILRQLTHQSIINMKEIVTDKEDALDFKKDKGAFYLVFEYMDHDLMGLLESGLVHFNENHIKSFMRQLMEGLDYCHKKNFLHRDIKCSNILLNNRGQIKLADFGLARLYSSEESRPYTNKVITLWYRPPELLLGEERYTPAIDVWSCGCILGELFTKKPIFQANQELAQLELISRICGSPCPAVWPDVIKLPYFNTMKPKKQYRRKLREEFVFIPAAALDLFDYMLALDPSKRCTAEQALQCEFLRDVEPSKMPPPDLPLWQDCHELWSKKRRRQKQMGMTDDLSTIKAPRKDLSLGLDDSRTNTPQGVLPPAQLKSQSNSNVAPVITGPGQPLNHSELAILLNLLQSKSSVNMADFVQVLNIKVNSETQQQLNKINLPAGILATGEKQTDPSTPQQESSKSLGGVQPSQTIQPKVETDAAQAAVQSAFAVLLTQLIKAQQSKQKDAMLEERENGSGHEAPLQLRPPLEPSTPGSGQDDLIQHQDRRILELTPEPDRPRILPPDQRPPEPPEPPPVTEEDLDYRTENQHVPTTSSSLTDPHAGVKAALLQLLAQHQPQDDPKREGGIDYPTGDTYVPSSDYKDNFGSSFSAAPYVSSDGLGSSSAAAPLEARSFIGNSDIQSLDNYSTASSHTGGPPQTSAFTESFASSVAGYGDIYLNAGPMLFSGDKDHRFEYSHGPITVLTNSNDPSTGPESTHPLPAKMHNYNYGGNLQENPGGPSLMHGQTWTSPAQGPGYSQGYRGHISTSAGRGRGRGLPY
UniProt Q9Z148: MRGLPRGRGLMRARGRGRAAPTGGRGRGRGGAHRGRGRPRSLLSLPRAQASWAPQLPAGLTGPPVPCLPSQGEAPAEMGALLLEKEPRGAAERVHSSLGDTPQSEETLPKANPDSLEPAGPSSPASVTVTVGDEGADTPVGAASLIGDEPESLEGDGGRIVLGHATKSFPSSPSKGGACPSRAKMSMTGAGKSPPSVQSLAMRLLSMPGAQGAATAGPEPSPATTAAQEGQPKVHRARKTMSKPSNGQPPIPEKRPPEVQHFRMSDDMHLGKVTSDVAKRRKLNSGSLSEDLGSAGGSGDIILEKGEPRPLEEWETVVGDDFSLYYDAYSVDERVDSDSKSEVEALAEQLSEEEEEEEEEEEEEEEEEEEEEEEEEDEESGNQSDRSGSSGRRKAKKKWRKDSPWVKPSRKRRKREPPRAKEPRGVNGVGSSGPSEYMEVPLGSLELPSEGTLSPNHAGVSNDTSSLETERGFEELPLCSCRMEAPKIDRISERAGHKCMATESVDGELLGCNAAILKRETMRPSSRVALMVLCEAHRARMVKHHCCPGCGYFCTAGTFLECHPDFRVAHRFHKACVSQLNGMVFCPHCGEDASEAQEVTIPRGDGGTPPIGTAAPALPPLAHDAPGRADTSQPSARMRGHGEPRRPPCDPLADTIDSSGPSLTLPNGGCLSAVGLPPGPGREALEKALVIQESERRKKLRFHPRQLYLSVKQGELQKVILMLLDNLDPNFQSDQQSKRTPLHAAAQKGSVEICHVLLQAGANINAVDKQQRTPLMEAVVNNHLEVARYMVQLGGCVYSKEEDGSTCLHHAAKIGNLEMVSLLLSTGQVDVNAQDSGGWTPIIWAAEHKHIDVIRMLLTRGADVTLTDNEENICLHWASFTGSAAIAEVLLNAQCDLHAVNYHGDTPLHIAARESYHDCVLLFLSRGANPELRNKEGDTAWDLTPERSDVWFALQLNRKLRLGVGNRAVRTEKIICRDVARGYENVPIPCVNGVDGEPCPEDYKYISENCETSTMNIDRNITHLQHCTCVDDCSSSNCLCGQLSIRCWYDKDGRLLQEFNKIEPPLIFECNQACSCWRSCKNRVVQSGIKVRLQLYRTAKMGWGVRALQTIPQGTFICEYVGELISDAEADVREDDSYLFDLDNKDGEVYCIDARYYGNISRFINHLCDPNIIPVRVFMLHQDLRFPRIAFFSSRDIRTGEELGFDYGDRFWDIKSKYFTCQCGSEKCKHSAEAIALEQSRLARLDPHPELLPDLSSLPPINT

Legend:
Assay in all cases: co-IP
[1] = target: wild-type HP1β with C-terminal GFP (UniProt P83917)
[2] = target: HP1α (mouse (endogenous in MEFs)) (UniProt Q61686)
[3] = target: HP1β 89/91A with C-terminal GFP (UniProt P83917)

Row | binding [1] | binding [2] | binding [3] | Substance
1 | binds | – | – | Flag-tagged Cdk13 (from UniProt Q69ZA1 1-1511) (enzyme)
2 | binds | binds | binds | G9a (from UniProt Q9Z148 1-1263) (enzyme)
3 | – | binds | – | HP1β (endogenous) (from UniProt P83917 1-185)
